Experimental data as given in publication PMC4154660.

Chains of the proteins cited; added tags and fusions are not shown. Lines headed by an entry give the natural chain unless they say otherwise; changes in a name come on top.
UniProt F7VLP8: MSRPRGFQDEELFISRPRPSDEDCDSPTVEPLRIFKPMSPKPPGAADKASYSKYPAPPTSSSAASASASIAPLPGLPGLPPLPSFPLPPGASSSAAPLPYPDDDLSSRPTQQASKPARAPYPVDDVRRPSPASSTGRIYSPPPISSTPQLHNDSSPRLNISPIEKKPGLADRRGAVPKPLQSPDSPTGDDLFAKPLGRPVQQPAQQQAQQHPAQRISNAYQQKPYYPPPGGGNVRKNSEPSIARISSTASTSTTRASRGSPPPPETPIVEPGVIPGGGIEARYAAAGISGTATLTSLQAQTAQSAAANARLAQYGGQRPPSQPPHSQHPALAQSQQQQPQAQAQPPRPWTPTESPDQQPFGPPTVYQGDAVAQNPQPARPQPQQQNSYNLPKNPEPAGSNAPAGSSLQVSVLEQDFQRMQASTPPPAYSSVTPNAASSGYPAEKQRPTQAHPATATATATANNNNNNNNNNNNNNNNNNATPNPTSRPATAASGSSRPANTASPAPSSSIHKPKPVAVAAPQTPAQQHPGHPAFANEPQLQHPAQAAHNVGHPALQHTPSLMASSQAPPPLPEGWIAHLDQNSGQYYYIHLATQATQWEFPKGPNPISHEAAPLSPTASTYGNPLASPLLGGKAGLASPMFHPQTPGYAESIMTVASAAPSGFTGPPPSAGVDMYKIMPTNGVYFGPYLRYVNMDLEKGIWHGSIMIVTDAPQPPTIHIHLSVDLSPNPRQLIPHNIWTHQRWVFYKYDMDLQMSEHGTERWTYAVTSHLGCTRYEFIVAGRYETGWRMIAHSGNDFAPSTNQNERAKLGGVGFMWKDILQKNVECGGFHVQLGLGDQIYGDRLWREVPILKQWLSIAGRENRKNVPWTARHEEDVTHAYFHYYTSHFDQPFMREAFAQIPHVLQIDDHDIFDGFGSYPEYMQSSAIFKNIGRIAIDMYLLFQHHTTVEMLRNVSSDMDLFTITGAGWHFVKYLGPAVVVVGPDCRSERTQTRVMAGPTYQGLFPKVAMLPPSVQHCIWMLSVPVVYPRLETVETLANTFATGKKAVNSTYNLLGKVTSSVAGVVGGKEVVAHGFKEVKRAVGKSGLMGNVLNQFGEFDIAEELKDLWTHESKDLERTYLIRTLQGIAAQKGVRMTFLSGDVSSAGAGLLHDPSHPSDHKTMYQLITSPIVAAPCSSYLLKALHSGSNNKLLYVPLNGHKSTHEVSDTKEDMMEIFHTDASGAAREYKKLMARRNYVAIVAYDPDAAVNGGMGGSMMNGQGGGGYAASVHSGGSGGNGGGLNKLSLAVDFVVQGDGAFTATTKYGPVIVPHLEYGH
UniProt F7VVV0: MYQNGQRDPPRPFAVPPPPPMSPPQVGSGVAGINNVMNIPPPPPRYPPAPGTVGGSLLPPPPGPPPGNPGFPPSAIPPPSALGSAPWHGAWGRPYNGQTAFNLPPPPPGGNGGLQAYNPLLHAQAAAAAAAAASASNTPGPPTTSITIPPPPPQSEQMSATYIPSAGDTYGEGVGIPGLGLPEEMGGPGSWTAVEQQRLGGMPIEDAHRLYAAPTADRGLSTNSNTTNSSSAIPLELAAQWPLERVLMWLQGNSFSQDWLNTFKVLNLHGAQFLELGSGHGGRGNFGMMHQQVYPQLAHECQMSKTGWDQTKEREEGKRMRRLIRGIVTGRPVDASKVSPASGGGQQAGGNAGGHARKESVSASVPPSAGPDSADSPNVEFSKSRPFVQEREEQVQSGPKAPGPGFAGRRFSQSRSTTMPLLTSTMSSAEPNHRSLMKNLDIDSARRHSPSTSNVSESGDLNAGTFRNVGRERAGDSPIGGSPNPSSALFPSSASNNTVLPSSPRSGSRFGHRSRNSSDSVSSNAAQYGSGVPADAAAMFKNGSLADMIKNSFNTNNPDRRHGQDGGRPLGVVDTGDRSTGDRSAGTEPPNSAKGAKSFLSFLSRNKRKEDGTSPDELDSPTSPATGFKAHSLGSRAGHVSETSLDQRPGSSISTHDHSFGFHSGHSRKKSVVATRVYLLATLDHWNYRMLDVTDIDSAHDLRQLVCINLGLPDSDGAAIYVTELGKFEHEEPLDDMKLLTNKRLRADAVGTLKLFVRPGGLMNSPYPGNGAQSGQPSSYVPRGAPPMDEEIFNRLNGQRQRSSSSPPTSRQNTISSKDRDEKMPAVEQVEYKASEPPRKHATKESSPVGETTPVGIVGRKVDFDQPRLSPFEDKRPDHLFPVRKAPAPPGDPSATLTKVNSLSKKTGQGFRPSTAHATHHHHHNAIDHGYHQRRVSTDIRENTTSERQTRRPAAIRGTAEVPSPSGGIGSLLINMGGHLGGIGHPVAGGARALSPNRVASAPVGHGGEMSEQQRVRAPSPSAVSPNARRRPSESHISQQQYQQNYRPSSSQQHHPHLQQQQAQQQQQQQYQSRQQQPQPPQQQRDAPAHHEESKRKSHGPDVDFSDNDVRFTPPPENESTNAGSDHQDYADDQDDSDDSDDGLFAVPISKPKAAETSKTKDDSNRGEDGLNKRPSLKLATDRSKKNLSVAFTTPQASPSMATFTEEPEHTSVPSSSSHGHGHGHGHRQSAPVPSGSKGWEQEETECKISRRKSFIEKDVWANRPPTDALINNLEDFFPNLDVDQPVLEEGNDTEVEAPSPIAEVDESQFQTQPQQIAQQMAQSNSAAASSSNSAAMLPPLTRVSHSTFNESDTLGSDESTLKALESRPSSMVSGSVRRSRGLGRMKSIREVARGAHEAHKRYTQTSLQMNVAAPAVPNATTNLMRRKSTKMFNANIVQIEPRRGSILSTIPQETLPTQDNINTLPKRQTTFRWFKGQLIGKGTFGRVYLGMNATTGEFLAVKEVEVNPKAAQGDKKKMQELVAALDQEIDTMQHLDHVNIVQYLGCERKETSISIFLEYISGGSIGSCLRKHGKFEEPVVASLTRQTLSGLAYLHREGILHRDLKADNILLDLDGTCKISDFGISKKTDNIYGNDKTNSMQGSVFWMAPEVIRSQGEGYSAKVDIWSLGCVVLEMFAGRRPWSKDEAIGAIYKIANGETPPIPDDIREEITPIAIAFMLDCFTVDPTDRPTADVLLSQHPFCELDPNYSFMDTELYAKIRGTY

Legend:
[1] = molecular target: PRO40 (yeast two-hybrid, full length) (Sordaria macrospora) (UniProt F7VLP8); assay: two-hybrid; reciprocal matrix of GAL4-AD and -BD fusions in diploid yeast, drop-plated on SD lacking leucine, tryptophan, histidine and adenine
[2] = molecular target: MEK1 (yeast two-hybrid matrix) (Sordaria macrospora) (UniProt F7W2W0); assay: as above

MIK1 (yeast two-hybrid, full length) (from UniProt F7VVV0 1-1764) (enzyme)
binding [1]: binds | binding [2]: binds

MEK1 (yeast two-hybrid matrix) (from UniProt F7W2W0) (enzyme)
binding [1]: binds

B1: PKC1 (yeast two-hybrid, full length) (enzyme, UniProt F7W233 1-1146)
chain: MNDEDKVHDISKKIEREKALINAAQAMRQQTNNEQVRSKLDTQMREGRRNLEFFEEKLRELQMRRLGHGVDNMSLGASPMSGSHRQSVDDFEGHGAPTPPPKEGGRGHSSHQSQGSGPLMPASGPYPGGPPDSAVPRARPNYTRLDLIKFDTPHLGPRIQLMLSQIQFKLNVEEQYLKGIEKMVQLYQMEGDKKSKLDAAAKRVESKQKIVLLKQALKRYEELHIDIDVDGPDDDSINLPALRKPLSGTLSIRILAVKDVDHAPLGRFARSPETFIAVKAEDIIVARTRPSRNDRWEAEFHTFPVDKTNEIEFTVYDKPSEHPVPIAMLWVRISDIVEELRRKKIEAEMTSAGWVSADRVGSRAPPPQFPMGTQSPQFAAPPTSPGSQEQNIMIPPQAPPPSQVVSQPVDGWFNLEPYGQIHLSFNFMKESRPQGMDRLGRKGAVRQRKEEVHEMYGHKFVQKQFYNIMRCALCGDFLKYSAGMQCEDCKYTCHTKCYTSVVTKCISKSNAETDPDEEKINHRIPHRFIPFSNLTANWCCHCGYMLPIGSKKNSRKCSECALTAHAQCVHLVPDFCGMSMAVANQILEGIRTQKKTHKDKASSMSERTLRPGSKTSFSSGSIAQTSTYSGSTAYTSIASPEATEAAKLMYSQTTPRPAGPDRTSTSSTTASAAAAAAMAPKHSSQPSQAGSIPDFGGNYGGSGSYGHPESREDEYNAQQQQGYGSPQQRKYNPADYANIGAYSSPPQAQHPQQQQQQQSPQQVSPMYQQNPQTPISKPQPVAPSYDNQVVPSASGVPVPTKKPLPSATDPGTGMRIGLDHFNFLAVLGKGNFGKVMLAETKKSRKLYAIKVLKKEFIIENDEVESIRSEKRVFLIANRERHPFLTNLHACFQTETRVYFVMEYISGGDLMLHIQRGMFGTKRAQFYAAEVCLALKYFHENGVIYRDLKLDNILLTLDGHIKIADYGLCKEDMWYGSTTSTFCGTPEFMAPEILLDKKYGRAVDWWAFGVLIYQMLLQQSPFRGEDEDEIYDAILADEPLYPIHMPRDSVSILQKLLTREPDQRLGSGPTDAQEIMSQPFFRNINWDDIYHKRVQPPFLPQIKSATDTSNFDSEFTSVTPVLTPVQSVLSQAMQEEFRGFSYTADFE
binding [1]: binds | binding [2]: no binding

Results are given in words; binding and its absence hold for the method and conditions named. Binding calls can cover weak binding; strength is not graded here.
